The values that follow come from patent US20180037943.

Data set [1] concerns T1, Protelomerase VP58.5 (gp40) (Vibrio parahaemolyticus phage VP58.5).
T1 sequence: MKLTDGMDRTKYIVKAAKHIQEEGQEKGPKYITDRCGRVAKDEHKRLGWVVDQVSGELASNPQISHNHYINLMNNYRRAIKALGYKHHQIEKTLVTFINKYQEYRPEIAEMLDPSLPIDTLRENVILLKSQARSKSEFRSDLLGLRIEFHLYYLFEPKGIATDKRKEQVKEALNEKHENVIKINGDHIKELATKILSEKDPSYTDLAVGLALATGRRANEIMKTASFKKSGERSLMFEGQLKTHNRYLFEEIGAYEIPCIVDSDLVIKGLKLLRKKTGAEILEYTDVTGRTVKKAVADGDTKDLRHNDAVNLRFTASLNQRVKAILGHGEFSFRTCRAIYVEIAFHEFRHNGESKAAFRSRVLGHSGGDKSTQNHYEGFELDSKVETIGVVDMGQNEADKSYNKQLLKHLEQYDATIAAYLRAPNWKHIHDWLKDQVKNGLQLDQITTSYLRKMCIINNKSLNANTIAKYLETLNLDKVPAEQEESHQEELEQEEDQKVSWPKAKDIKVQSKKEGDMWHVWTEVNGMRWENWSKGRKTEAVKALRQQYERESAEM
Briefly: enzyme reaction in vitro. Particulars: purified recombinant protein, protein details: produced in-house.

Data set [2] concerns the target T2, Protelomerase TelN (Escherichia coli bacteriophage N15) (UniProt Q77WP1).
T2 sequence (limits assumed): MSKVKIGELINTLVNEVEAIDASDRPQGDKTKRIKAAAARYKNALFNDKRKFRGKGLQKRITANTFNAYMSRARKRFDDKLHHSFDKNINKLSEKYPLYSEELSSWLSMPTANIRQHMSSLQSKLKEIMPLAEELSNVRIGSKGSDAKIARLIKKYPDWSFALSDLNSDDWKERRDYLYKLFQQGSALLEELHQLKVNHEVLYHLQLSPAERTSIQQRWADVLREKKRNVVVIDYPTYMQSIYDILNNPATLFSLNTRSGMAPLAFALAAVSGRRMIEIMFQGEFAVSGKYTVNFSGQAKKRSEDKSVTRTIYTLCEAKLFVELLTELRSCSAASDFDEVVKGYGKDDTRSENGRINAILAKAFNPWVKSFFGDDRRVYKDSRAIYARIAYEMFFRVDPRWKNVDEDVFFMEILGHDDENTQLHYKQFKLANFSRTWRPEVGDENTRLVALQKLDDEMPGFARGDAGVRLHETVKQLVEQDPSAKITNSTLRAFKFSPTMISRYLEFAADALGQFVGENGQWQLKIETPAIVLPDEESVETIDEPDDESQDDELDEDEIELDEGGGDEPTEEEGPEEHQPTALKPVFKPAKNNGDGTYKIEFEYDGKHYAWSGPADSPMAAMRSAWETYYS
The data set can be described thus: enzyme reaction in vitro. The note with it: purified recombinant protein, protein details: produced in-house.

Tags and fusion partners may be left off the protein sequences shown. The exact form of at least one protein or probe is not confirmed.

Take “AACCTGCACAGGTGTACATATAGTCTAATTAGACTATATGTACACCTGTGCAGGTTACTAGTAGATCTGCTAGCCGCCAG (double strand) [1.107V end of full sized linear product (VP58.5 site)]”: the “activity on this sequence” value in data set [1] (1 uM VP58.5 (0.5 uM with TelN), IAB buffer with Mg, 37 C 15-30 min, hairpin released, label: 5' Alexa Fluor 488) is given as “active”.
In the case of “GGGCGGGGGTCGTTGGGCGGTCAGCCAGGCGGGCCATTTACCGTAAGTTATGTAACGCGGAACTCCATATATGGGCTATGAACTAATGACCCCGTAATTGATTACTACTTAAGTGTACATATCAGCACACAATAGTCCATTATACGCGCGTATAATGGGCAATTGTGTGCTGATATGTACAAGATCTACATGTGAGCTTT (double strand) [3.2-templated extension product (TelN site)]”, the “activity on this sequence” value in data set [2] (0.5 uM TelN, 37 C 15-30 min, released dbDNA T5 exonuclease resistant) was “active”.
“TACTAGTCATCAACCTGCACAGGTGTACATATAGTCTAATTAGACTATATGTACACCTGTGCAGGTTTACTAGGCACCACCTGCAGGAATCTACTAGGCCGCCGCAACCAAACTTGGATCGGTGCACATGTCGAATACTAGGATTCCTGCAGGTGGTGC [DNA-V loopback-extended]”: the “activity on this sequence” value in data set [1] (2.5 uM VP58.5, IAB plus NEB buffer 4, 37 C 15 min, T5-resistant circular product, folded or branched DNA) is on record as “active”.
As for “TACTAGTCATCTATCAGCACACAATTGCCCATTATACGCGCGTATAATGGACTATTGTGTGCTGATATACTAGGCACCACCTGCAGGAATCTACTAGGCCGCCGCAACCAAACTTGGATCGGTGCACATGTCGAATACTAGGATTCCTGCAGGTGGTGC [DNA-T loopback-extended]”, in data set [2] (2.5 uM TelN, IAB plus NEB buffer 4, 37 C 15 min, T5-resistant circular product, folded or branched DNA), the “activity on this sequence” value was “active”.
In the case of “TATCAGCACACAATTGCCCATTATACGCGCGTATAATGGACTATTGTGTGCTGATATGTACACTTAAGTAGTAATCAAT (double strand) [1.120 end of full sized linear product (TelN site)]”, the “activity on this sequence” value in data set [2] (1 uM TelN (0.5 uM with VP58.5), IAB buffer with Mg, 37 C 15-30 min, hairpin released, label: 5' Alexa Fluor 488) is given as “active”.
Take “TATCAGCACACAATTGCCCATTATACGCGCGTATAATGGGCAATTGTGTGCTGATATGTACACTTAAGTAG (double strand) [PEGS1-derived extension product (TelN site)]”: the “activity on this sequence” value in data set [2] (400 nM TelN, 1x TLG buffer pH 7.4, 30 C 15 min, 1.15 ug/ml product released, closed ends ExoIII resistant, label: 5' biotin-C6) is “active”.
